{
  "source": "paper doi:10.1101/382564",
  "assay_in_all_cases": "co-IP",
  "key": {"Pol1-Flag (S. pombe) [1]": {"target": "T1, Pol1-Flag (S. pombe) (UniProt P28040)", "T1 sequence": "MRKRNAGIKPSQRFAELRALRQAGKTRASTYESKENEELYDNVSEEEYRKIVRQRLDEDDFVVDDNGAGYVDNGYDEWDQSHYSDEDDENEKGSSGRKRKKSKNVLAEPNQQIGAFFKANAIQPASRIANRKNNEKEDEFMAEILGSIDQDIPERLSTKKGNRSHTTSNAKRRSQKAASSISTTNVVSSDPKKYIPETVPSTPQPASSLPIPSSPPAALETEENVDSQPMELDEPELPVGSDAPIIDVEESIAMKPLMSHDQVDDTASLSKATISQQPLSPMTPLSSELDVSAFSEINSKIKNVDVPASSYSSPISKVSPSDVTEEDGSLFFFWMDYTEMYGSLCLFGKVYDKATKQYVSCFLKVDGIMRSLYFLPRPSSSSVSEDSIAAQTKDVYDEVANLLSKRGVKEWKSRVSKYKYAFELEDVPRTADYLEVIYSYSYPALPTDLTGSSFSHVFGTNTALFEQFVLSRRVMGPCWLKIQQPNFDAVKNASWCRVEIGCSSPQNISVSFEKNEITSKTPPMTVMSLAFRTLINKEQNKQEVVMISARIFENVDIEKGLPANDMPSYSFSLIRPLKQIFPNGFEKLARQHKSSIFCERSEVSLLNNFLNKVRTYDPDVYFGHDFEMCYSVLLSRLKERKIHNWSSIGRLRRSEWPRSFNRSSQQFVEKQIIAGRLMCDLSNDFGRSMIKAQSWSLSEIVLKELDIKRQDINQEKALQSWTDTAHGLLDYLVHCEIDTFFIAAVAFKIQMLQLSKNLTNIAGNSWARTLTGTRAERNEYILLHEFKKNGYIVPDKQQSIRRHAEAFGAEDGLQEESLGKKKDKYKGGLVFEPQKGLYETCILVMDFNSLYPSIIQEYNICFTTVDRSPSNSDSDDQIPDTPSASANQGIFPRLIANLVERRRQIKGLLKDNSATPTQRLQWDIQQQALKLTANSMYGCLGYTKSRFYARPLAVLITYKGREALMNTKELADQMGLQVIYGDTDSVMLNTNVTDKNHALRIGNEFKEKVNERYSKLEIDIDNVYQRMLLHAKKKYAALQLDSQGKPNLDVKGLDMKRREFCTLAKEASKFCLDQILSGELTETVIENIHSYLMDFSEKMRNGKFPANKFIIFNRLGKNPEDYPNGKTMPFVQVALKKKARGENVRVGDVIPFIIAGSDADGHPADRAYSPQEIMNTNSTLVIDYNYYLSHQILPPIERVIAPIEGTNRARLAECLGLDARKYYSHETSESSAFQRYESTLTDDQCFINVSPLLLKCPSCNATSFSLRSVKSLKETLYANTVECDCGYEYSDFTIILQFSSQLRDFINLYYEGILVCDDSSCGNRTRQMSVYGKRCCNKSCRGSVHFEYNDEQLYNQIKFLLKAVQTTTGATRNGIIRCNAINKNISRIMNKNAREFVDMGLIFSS"}, "Pol1-Flag (S. pombe) [2]": {"target": "T1, Pol1-Flag (S. pombe)", "remark": "listed apart in the source"}, "Ten1-Flag (S. pombe)": {"target": "T2, Ten1-Flag (S. pombe) (UniProt P0C5Y7)", "T2 sequence": "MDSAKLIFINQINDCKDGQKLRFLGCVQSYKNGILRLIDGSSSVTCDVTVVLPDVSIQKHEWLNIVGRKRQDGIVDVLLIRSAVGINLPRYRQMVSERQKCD"}},
  "note": "Like-named read-outs stand apart in the source and are kept apart here. No constants are given. Whether binding was seen depends on the method and setting. In cells and extracts the contact can be indirect. Some binding calls cover weakened binding; strength is not graded here. Where a sequence is shown, tags or fusion partners need not be part of it.",
  "data": [
    {"binder": "Stn1-Myc (protein, UniProt Q0E7J7 1-325) MLENENQLTHQFPTLSRWNPMFISDVHKISFHPHLQRYIGFWMGFPIRWIQIVGYIAAIDIYEGKHVLTVDDCSGMVLRVVFIIQDDFSMSKRAISMSPGNVVCVFGKINSFRSEVELIAQSFEELRDPNDEWKAWQKRMRYKKNLTKISKNHHSIIRTPKKSYFPKDHAKELLKCIRQMCKLNVQAGFTIEELIIYLKAKELHLPLVHIFNVENEIVENCDGNHILALNFSLQTLLQHGRIVRKSNSVYMLVTSKDIIRFVIPLMASGLLEAHKVQSIVRDSNPMFITLPLSAIAKHICQFLLRTKGKWRQAKKYTWVRDNQFV", "values": [
      {"measurement": "binding", "setting": "Pol1-Flag (S. pombe) [1]", "value": "no binding (condition: in ssu72Δ cells)"},
      {"measurement": "binding", "setting": "Pol1-Flag (S. pombe) [2]", "value": "binds"},
      {"measurement": "binding", "setting": "Ten1-Flag (S. pombe)", "value": "binds"}
    ]}
  ]
}
